From publication PMC5496436
These are yes or no findings as the source states them, for the method shown. Binding seen in cells or lysates may run through a third protein. Binding calls can cover weak binding; strength is not graded here.

Amino acid sequences for entries named in this document (tags omitted). A change or cut given only in a name is not applied to a line headed by its entry.
UniProt Q9C0C9: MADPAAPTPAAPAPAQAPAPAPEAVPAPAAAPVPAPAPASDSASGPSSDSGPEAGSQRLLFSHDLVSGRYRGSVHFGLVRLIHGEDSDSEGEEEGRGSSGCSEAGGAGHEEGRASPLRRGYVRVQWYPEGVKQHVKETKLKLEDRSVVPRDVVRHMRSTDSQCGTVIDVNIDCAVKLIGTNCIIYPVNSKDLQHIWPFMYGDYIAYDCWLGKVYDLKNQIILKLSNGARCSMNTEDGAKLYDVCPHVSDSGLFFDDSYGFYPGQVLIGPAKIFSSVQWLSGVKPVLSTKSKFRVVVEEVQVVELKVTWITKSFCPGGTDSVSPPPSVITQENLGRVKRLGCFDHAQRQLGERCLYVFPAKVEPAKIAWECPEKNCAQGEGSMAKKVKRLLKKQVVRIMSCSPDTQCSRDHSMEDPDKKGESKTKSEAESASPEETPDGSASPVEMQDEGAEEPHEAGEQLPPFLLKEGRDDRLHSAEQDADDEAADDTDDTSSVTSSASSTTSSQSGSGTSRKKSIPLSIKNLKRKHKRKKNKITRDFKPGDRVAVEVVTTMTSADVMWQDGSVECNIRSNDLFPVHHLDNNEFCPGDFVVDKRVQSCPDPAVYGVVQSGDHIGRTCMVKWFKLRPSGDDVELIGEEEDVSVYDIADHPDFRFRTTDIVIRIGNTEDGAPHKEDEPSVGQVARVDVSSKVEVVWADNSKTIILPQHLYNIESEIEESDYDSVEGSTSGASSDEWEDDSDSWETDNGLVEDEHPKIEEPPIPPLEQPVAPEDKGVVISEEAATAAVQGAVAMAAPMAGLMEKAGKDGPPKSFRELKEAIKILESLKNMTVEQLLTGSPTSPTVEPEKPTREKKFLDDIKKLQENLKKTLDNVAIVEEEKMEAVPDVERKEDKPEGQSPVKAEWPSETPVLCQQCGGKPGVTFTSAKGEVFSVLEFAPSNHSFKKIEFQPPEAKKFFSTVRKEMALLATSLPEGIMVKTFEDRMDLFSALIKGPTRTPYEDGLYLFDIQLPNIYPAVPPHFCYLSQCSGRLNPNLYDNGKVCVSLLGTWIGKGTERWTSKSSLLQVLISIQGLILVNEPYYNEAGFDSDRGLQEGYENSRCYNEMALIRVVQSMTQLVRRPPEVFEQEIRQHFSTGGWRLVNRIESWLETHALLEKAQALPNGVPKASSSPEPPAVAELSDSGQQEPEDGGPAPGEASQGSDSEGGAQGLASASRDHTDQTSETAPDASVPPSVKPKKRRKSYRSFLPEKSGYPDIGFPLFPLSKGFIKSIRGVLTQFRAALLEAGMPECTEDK
UniProt O75444: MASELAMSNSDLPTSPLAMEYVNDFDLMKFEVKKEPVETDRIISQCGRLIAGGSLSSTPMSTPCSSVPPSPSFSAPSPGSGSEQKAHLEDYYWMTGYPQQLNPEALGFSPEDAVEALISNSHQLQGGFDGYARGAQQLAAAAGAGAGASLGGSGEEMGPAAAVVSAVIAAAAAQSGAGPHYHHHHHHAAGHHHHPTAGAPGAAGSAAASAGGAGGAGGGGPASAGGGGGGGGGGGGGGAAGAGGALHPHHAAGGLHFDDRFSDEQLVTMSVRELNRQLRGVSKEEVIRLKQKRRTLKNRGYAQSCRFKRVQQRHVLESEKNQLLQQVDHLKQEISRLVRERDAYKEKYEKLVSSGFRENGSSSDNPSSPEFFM

Target: Myc-tagged UBE2O (UniProt Q9C0C9)
Test: co-IP; HA-c-Maf and Myc-UBE2O co-transfected into HEK293T for 48 h; lysates precipitated with anti-HA or anti-Myc antibody, protein A+G agarose, 4 °C, immunoblotting

## HA-tagged c-Maf (from UniProt O75444 1-373)
  binding: binds
